Experimental data: PubChem BioAssay AID1259308 (NCATS, 2017)
Here is a random part of about 59,000 reagents tested. About 1,510 of all reagents (2.6%) were called active. 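Calls use total luciferase alone and ignore viability, so some active siRNAs may act by altering cell number.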 Reagents against one gene are numbered here. Not all columns of the deposit are shown. Reagent sequences are not shown.

Test: 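Knock-downs that increase output of a recombinant reporter protein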 (primary screen)
Cells: human HEK293 embryonic kidney cells stably expressing firefly luciferase (HEK-CMV-Luc2-Hygro)
Reagents: single siRNA against human genes, 0.8 pmol siRNA per well
Duration: 72 h
Detection: 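Luciferase light (ONE-Glo) measured on one replicate plate set and viability (CellTiter-Glo) on the other, scaled to a negative control siRNA, with robust z-scores and luciferase per cell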
Reading the numbers: total luciferase, z-score: higher = more reporter protein produced
Hit rule: 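Active when the median/MAD z-score for overall luciferase is greater than 3; a gene was taken forward for validation with new siRNAs if at least two of its three siRNAs passed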
Calls: active = raised luciferase; inactive = no rise

total luciferase, z-score, by gene and reagent
LMF2 (lipase maturation factor 2): #1 0.342 inactive; #2 -0.1 inactive; #3 -1.81 inactive
UBQLNL (ubiquilin like): #1 0.172 inactive; #2 -1.31 inactive; #3 -0.208 inactive
CEP63 (centrosomal protein 63): #1 1.54 inactive; #2 -0.531 inactive; #3 0.0339 inactive

4 neighbouring reagents already listed, quoted:
total luciferase, z-score, by gene and reagent
LMF2 (lipase maturation factor 2): #2 -0.1 inactive; #3 -1.81 inactive
UBQLNL (ubiquilin like): #1 0.172 inactive; #2 -1.31 inactive

Further reagents:
total luciferase, z-score, by gene and reagent
STXBP5 (syntaxin binding protein 5): #1 -0.125 inactive; #2 0.26 inactive; #3 0.547 inactive
PTCHD3 (patched domain containing 3 (gene/pseudogene)): #1 0.0236 inactive; #2 -0.269 inactive; #3 -1.03 inactive
FGF3 (fibroblast growth factor 3): #1 0.389 inactive; #2 -0.143 inactive; #3 0.0606 inactive
PICALM (phosphatidylinositol binding clathrin assembly protein): #1 0.299 inactive; #2 1.82 inactive; #3 2.34 inactive
SRD5A1 (steroid 5 alpha-reductase 1): #1 0.367 inactive; #2 -0.191 inactive; #3 2.35 inactive
